Laboratory results taken from the supplement of paper PMC4635364.
Counter-ions that a name gives are not always drawn. Some of the results follow. This data set is noisy: repeats of one test often differ as much as different tests do.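 ReNCell VM, a human fetal ventral-midbrain neural progenitor line, was differentiated without mitogens. Blinded raters scored images stained for doublecortin (early neurons) or tyrosine hydroxylase (dopaminergic neurons) against untreated wells (0 = no change). Scores were averaged across repeats and both raters, and compounds averaging 2 or more were selected as hits for retesting.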

Legend:
[1] = tested on: ReNCell VM; assay: neuronal differentiation score (DCX+ cell fraction vs untreated, manual image score) (score (-3 to 3)); higher = more neuronal differentiation; conditions: 2 uM, 2 weeks
[2] = tested on: ReNCell VM; assay: dopaminergic neuron differentiation score (TH+ cell fraction vs untreated, manual image score) (score (0 to 3)); higher = more TH+ dopaminergic neuron differentiation; conditions: 2 uM, 4 weeks, BDNF 10 ng/ml + GDNF 10 ng/ml

In the case of `C(#CCN1CCCC1)CN1CCCC1` [Tremorine dihydrochloride], the neuronal differentiation score ([1]; library: Prestwick) was inactive: 0 and the “dopaminergic neuron differentiation score” value ([2]; library: Prestwick) was inactive: 0.
For `COc1cc([C@@H]2c3cc4c(cc3[C@H](OC(C)=O)[C@H]3COC(=O)[C@H]23)OCO4)cc(OC)c1OC`, the neuronal differentiation score ([1]; library: Spectrum) was inactive: 0 and the “dopaminergic neuron differentiation score” value ([2]; library: Spectrum) was inactive: 0.
In the case of `Nc1nc(N)nc(NC2CC2)n1`, the neuronal differentiation score ([1]; library: Spectrum) was inactive: 0 and the “dopaminergic neuron differentiation score” value ([2]; library: Spectrum) was inactive: 0.
With `O=C(CCCN1CCC2(CC1)C(=O)NCN2c1ccccc1)c1ccc(F)cc1` the neuronal differentiation score ([1]; library: Spectrum) was inactive: 0 and the “dopaminergic neuron differentiation score” value ([2]; library: Spectrum) was inactive: 0.
`NNC(=O)c1ccc(O)cc1` [4-Hydroxybenzhydrazide] was tested, and the neuronal differentiation score ([1]; library: LOPAC) was inactive: -1 and the “dopaminergic neuron differentiation score” value ([2]; library: LOPAC) was inactive: 0.
In the case of `COC(=O)[C@@H](N)CCCNC(=N)N[N+](=O)[O-]` [L-NAME hydrochloride], the neuronal differentiation score ([1]; library: Tocriscreen) was inactive: 0 and the “dopaminergic neuron differentiation score” value ([2]; library: Tocriscreen) was inactive: 0.
`CC(=O)OCC1=C(C(=O)[O-])N2C(=O)[C@@H](NC(=O)CCC[C@@H](N)C(=O)[O-])[C@H]2SC1.[Zn+2]` [Cephalosporin C zinc salt] was tested, and the neuronal differentiation score ([1]; library: LOPAC) was inactive: 0 and the “dopaminergic neuron differentiation score” value ([2]; library: LOPAC) was inactive: 0.
`COC[C@]12CN(C=O)[C@@H]3[C@@H]4[C@H](OC)[C@H]1[C@@]3([C@@H](OC)C[C@H]2O)[C@@H]1C[C@@]2(O)[C@H](OC(=O)c3ccccc3)[C@@H]1[C@]4(OC(C)=O)[C@@H](O)[C@@H]2OC` was tested, and the neuronal differentiation score ([1]; library: Spectrum) was inactive: 0 and the “dopaminergic neuron differentiation score” value ([2]; library: Spectrum) was inactive: 0.
`CCN(C)C(=O)Oc1cccc([C@H](C)N(C)C)c1` [Rivastigmine] was tested, and the neuronal differentiation score ([1]; library: Prestwick) was inactive: 0 and the “dopaminergic neuron differentiation score” value ([2]; library: Prestwick) was inactive: 0.
For `CC[C@H]1CN2CCc3cc(OC)c(OC)cc3[C@@H]2C[C@@H]1C[C@H]1NCCc2cc(OC)c(OC)cc21`, the neuronal differentiation score ([1]; library: Spectrum) was inactive: 0 and the “dopaminergic neuron differentiation score” value ([2]; library: Spectrum) was inactive: 0.
For `C=CCc1ccccc1OCC(O)CNC1(C)CCC(C(C)(C)NC(=O)CBr)CC1` (stereo not drawn) [Bromoacetyl alprenolol menthane], the neuronal differentiation score ([1]; library: LOPAC) was inactive: 0 and the “dopaminergic neuron differentiation score” value ([2]; library: LOPAC) was inactive: 0.
In the case of `C=CCN1CC[C@]23c4c5ccc(O)c4O[C@H]2/C(=N/N=C2\CC[C@@]4(O)[C@H]6Cc7ccc(O)c8c7[C@@]4(CCN6CC=C)[C@H]2O8)CC[C@@]3(O)[C@H]1C5` [Naloxonazine dihydrochloride], the neuronal differentiation score ([1]; library: LOPAC) was inactive: 0 and the “dopaminergic neuron differentiation score” value ([2]; library: LOPAC) was inactive: 0.
In the case of `CCNC1(c2cccs2)CCCCC1=O` (stereo not drawn), the neuronal differentiation score ([1]; library: Spectrum) was inactive: 0 and the “dopaminergic neuron differentiation score” value ([2]; library: Spectrum) was inactive: 0.
With `C[N+]1(C)CCCC(OC(=O)C(O)(c2ccccc2)c2ccccc2)C1` (stereo not drawn) [Mepenzolate bromide] the neuronal differentiation score ([1]; library: Prestwick) was inactive: 0 and the “dopaminergic neuron differentiation score” value ([2]; library: Prestwick) was inactive: 0.
In the case of `CC(NC(C)(C)C)C(=O)c1cccc(Cl)c1` (stereo not drawn), the neuronal differentiation score ([1]; library: Spectrum) was inactive: 0 and the “dopaminergic neuron differentiation score” value ([2]; library: Spectrum) was inactive: 0.
`CNCC(O)c1ccc(O)cc1` (stereo not drawn) was tested, and the neuronal differentiation score ([1]; library: Spectrum) was inactive: 0 and the “dopaminergic neuron differentiation score” value ([2]; library: Spectrum) was inactive: 0.
In the case of `C[C@@H]1C(=O)O[C@H]2[C@H]1CC[C@@]1(C)C=CC(=O)[C@@]3(C)O[C@@]213` [EPOXY (4,5alpha)-4,5-DIHYDROSANTONIN], the neuronal differentiation score ([1]; library: Spectrum) was inactive: 0 and the “dopaminergic neuron differentiation score” value ([2]; library: Spectrum) was inactive: 0.
For `CN1[C@@H]2C[C@@H](OC(=O)[C@H](CO)c3ccccc3)C[C@H]1[C@@H]1O[C@@H]12` [(-)-Scopolamine hydrobromide], the neuronal differentiation score ([1]; library: LOPAC) was inactive: 0 and the “dopaminergic neuron differentiation score” value ([2]; library: LOPAC) was inactive: 0.
`c1ccc2c(c1)OCC(C1=NCCN1)O2` (stereo not drawn) was tested, and the neuronal differentiation score ([1]; library: Spectrum) was inactive: 0 and the “dopaminergic neuron differentiation score” value ([2]; library: Spectrum) was inactive: 0.
For `CCCN(CCC)[C@@H]1CCc2c(F)ccc(O)c2C1` [R(+)-UH-301 hydrochloride], the neuronal differentiation score ([1]; library: LOPAC) was inactive: 0 and the “dopaminergic neuron differentiation score” value ([2]; library: LOPAC) was inactive: 0.
For `c1ccc2nc(N3CCNCC3)ccc2c1` [Quipazine dimaleate salt], the neuronal differentiation score ([1]; library: Prestwick) was inactive: 0 and the “dopaminergic neuron differentiation score” value ([2]; library: Prestwick) was inactive: 0.
In the case of `CC[C@@]1(O)C[C@H](O)c2c(cc3c(c2O)C(=O)c2c(O)ccc(O)c2C3=O)[C@H]1C(=O)OC`, the neuronal differentiation score ([1]; library: Spectrum) was inactive: 0 and the “dopaminergic neuron differentiation score” value ([2]; library: Spectrum) was inactive: 0.
For `C[C@@H]1NCCc2cc(O)c(O)cc21` [Salsolinol hydrobromide], the neuronal differentiation score ([1]; library: Phytochemical) was inactive: 0 and the “dopaminergic neuron differentiation score” value ([2]; library: Phytochemical) was inactive: 0.
In the case of `CC(=O)N1CC[N+](C)(C)CC1` [4-Acetyl-1,1-dimethylpiperazinium iodide], the neuronal differentiation score ([1]; library: Tocriscreen) was inactive: 0 and the “dopaminergic neuron differentiation score” value ([2]; library: Tocriscreen) was inactive: 0.
For `CC1(C)C(C=C(Cl)Cl)C1C(=O)OC(C#N)c1cccc(Oc2ccccc2)c1` (stereo not drawn), the neuronal differentiation score ([1]; library: Spectrum) was inactive: 0 and the “dopaminergic neuron differentiation score” value ([2]; library: Spectrum) was inactive: 0.
In the case of `CCCN1CCC[C@@H](c2cccc(O)c2)C1` [S(-)-3PPP hydrochloride], the neuronal differentiation score ([1]; library: LOPAC) was inactive: 0 and the “dopaminergic neuron differentiation score” value ([2]; library: LOPAC) was inactive: 0.
With `CN1[C@@H]2C[C@@H](OC(=O)[C@H](CO)c3ccccc3)C[C@H]1[C@@H]1O[C@@H]12` [Scopolamine hydrobromide] the neuronal differentiation score ([1]; library: Tocriscreen) was inactive: -3 and the “dopaminergic neuron differentiation score” value ([2]; library: Tocriscreen) was inactive: 0.
For `CC[C@@H](C(N)=O)N1CCCC1=O` [Levetiracetam], the neuronal differentiation score ([1]; library: Prestwick) was inactive: 0 and the “dopaminergic neuron differentiation score” value ([2]; library: Prestwick) was inactive: 0.
With `C[C@]12CC[C@H]3[C@@H](CC[C@]4(O)C[C@@H](O)CC[C@]34C=O)[C@@]1(O)CC[C@@H]2C1=CC(=O)OC1` the neuronal differentiation score ([1]; library: Spectrum) was inactive: 0 and the “dopaminergic neuron differentiation score” value ([2]; library: Spectrum) was inactive: 0.
